The other results are listed elsewhere or left out. Values are worked out from sequencing counts and are noisy.
T1: Homer1 EVH1 domain
T1 chain: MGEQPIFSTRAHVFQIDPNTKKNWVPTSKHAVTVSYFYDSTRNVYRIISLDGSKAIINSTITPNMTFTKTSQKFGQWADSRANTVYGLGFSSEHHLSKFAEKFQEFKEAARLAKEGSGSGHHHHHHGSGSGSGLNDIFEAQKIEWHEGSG


Molecular target: T1, Homer1 EVH1 domain
Assay: enrichment score (AUC of log2 frequency ratio across FACS sorting rounds) (log2 AUC); higher = stronger enrichment for Homer1 EVH1 binding

Binder	enrichment score
VMAYDRFVAVCHPLHYMIIMNPHLCGLLVFVTWLIG	2.71
QWWHQAFYNFFTFSCLFIIPLFIMLICNAKIIFTLT	4.47
GEPPPPAAPALMITPIINWGMALCLVLALHGPRTLH	1.58
MTLLPGLLFLTWLHTCLAHHDPSLRGHPHSHGTPHC	0.36
SFGEIASGFWQATAIFLAVGIFILCMVALVSVFTMC	-0.234
PGYYLYSQGLLTLNTVCLMSGIAGFALTMLCWMSYY	3.78
LVHGDVPENQLKWTVFVRALINDSLFILCAISLVCY	3.03
TSLWVRNIQMYLSGIIVTLAGVYLSDGAEIKEKGFF	-0.117
LQEQLKKNKGFRRFVRLQEGRPGFGGLQLQDLLPLP	1.33
SYVGLVLVLLRGLPGSGKSFLARTLQEDNPSGVILS	2.17
IFKAFSMLSAHVIVVVLVFGPLIFFYIFPFPTSHLD	0.113
KNGFFQGYNRLTWIVVVLQALGGLVIAAVIKYADNI	0.477
SPSPLQQIPMRSSAAEAWPGCHRRSFTKKVSRPEPL	0.731
IGSVLGALIGVAGSTYVNRVRLQELKALLLEAQKGP	0.27
SSTTKLYLAKQVFVGFLLILAAIELPLVLTEDSGPA	0.755
RFRRSLLLLVKHSCVESLFLVRNFCILYYFLGYIPK	-5.02
PRAAVHNGFWFFKFAAAIAIIIGAFFIPEGTFTTVW	0.3
LLYPVIMTNELCIQLLVLSFIGGLLHALIHEAFSFR	2.84
GNIDQVAVVAINVLFFVTLFIFALFETIITPLTMDM	3.65
ETLQRSWETKVGTLVRRESSGESLFIALLLTQALIC	0.82
MWLPWALLLLWVPGCFALSKCRTVAGPVGGSLSVQC	0.0316
PPAEDREEAGSPTLPQGPPVPGDPWPGAPPLFEDPP	0.966

Binder	enrichment score
PAVRLNSTGAPASLGAGGGASSVPLSVLILNLLLVF	1.14
EMLDIFVHQLLVLVVFLTGLVAFLEFLVRNNVLLEL	0.94
VYPWWGEAMGWAFALSSMLCVPLHLLGCLLRAKGTI	2.96
YQHHFIQHFLRKHYNEWITNIYVKPFVVILYLIYAS	1.14
MQQNNSVTEFILLGLTQDPLRQKIVFVIFLVFYMGT	1.39
DRSLINLHLMHTSYFLFVMVITMFCYAVINGRPSKL	4.59
LGLGVAVVSSLVNGSTFVLQKKGIVRAKRRGTSYLT	-1.03
RFLAWDKGLRVSDKYLLAMVIVYFSRAGLQSWQYQC	2.11
DHTNKGWSGDNSPGIEALCAIYITYAVIISVGILGN	3.06
DRGAEEPISVSQMFQPIILLILILVLFSSLSYTTIF	2.43
LKRPEVIATCGVALWLLLLGTAVCIHRRRRARVHLD	2.56
MLRNGSIVTEFILVGFQQSSTSTRALLFALFLALYS	0.756
TRYKGNGGVYGWDLKRKIISRGANFLTQILLRPGAS	-0.215
FPNGQTSYASSNKLTNYVWYFEGICFSGIMMLIVTT	0.176
SIHSVLFRKDPFLWRAALLYYTVYQANQISFCELFK	0.438
LGDLNIQQNSKYPILFLFLLITYVILTFVLLLNMLI	-0.444
VGFFFPLIMMLTWMVSVASMVRKLVYEQEIQIEEYM	-1.91
TEPRDSMQYVLYVRLAILVIEFIYAIVGIVWLTQYY	2.22
VPPFGENPWWVCLAAAIPALLVAILIFMDQQITAVI	3.81
SHGRIQRVQRRRVPSASPLIQKINRRSVLFHPYCWS	-0.442
VMAYDRYVAICNPLLYMVVVSRRLCLLLVSLTYLYG	-2
TSDMDIGKRKIMCVAGIGLVVLFFSWMLSIFRSKYH	0.195

Reference: the supplement of paper PMC11237882
